Measurements from paper PMC4877375.
These are yes or no findings as the source states them, for the method shown. Binding seen in cells or lysates may run through a third protein. These calls come from enrichment with a bait or labelling near it, and not all partners need be listed.

T1: Trs120p-TAP (yeast (endogenous in the yeast strain)) (UniProt Q04183)
T1 sequence: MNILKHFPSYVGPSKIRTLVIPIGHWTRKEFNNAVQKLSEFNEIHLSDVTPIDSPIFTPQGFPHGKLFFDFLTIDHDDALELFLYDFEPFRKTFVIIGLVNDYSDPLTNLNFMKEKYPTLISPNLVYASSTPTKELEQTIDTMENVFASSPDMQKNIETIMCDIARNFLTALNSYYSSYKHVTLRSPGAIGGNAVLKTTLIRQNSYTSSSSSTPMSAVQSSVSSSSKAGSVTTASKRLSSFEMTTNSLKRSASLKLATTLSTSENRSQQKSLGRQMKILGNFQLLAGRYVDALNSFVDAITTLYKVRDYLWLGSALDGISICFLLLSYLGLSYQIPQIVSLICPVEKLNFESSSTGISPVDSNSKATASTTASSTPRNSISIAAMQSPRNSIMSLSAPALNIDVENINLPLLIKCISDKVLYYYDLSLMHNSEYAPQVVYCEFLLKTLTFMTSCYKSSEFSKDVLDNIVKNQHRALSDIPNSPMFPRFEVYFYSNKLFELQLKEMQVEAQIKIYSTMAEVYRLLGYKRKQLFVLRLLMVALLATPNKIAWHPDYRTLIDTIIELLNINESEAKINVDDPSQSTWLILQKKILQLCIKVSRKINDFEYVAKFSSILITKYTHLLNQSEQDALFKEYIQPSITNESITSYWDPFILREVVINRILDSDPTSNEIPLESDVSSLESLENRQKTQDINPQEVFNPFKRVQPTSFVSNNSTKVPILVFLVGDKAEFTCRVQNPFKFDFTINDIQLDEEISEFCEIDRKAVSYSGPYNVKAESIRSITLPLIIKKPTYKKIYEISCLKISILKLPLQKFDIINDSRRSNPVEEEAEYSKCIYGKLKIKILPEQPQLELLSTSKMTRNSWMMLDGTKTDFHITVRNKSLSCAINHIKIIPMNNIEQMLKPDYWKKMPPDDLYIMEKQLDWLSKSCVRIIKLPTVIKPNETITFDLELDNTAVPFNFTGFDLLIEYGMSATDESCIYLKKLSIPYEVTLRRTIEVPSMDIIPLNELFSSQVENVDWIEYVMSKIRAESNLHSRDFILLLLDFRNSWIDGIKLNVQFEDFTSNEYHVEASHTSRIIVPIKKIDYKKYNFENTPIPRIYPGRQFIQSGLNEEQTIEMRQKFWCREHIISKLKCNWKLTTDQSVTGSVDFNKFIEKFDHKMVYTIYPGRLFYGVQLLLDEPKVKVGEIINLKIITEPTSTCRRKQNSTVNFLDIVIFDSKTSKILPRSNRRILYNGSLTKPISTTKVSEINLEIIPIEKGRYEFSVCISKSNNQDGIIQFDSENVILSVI

B1: SLM1 (protein, UniProt P40485 1-686)
chain: MSKNNTMTSAVSDMLSQQQLNLQHLHNLQQHTRSMTSADHANVLQQQQQQQQQQQQQQQQQQQSASFQNGSLTSDINQQSYLNGQPVPSTSNSTFQNNRTLTMNSGGLQGIISNGSPNIDSNTNVTIAVPDPNNNNGKQLQGKNSLTNTSILSRARSSLQRQRLAQQQQQQQDPRSPLVILVPTAAQPTDILAARFSAWRNVIKSVIVYLTEIASIQDEIVRQQLRLSHAVQFPFFSIENQYQPSSQEDKSVQKFFLPLGNGSIQDLPTILNQYHESLASSASKASRELTNDVIPRLEDLRRDLIVKIKEIKSLQSDFKNSCSKELQQTKQAMKQFQESLKDARYSVPKQDPFLTKLALDRQIKKQLQEENFLHEAFDNLETSGAELEKIVVMEIQNSLTIYARLLGQEAQLVFDILISKLDSGFFNVDPQFEWDNFISRDPNFLLPNLPMRTFKEIVYKYQFDPLTYEIKSGFLERRSKFLKSYSKGYYVLTPNFLHEFKTADRKKDLVPVMSLALSECTVTEHSRKNSTSSPNSTGSDAKFVLHAKQNGIIRRGHNWVFKADSYESMMSWFDNLKILTSTSNIQDKYKFITQKLNLNSDGKPKLTNNHTSINKYQLSNANSTMVENDENDDINSNYVGSTVTPKLDNQTNTNTSMSSLPDTNDSELQDQVPNIYIQTPINDFKS
B2: SEC28 (protein, UniProt P40509 1-296)
chain: MDYFNIKQNYYTGNFVQCLQEIEKFSKVTDNTLLFYKAKTLLALGQYQSQDPTSKLGKVLDLYVQFLDTKNIEELENLLKDKQNSPYELYLLATAQAILGDLDKSLETCVEGIDNDEAEGTTELLLLAIEVALLNNNVSTASTIFDNYTNAIEDTVSGDNEMILNLAESYIKFATNKETATSNFYYYEELSQTFPTWKTQLGLLNLHLQQRNIAEAQGIVELLLSDYYSVEQKENAVLYKPTFLANQITLALMQGLDTEDLTNQLVKLDHEHAFIKHHQEIDAKFDELVRKYDTSN
B3: BET5 (protein, UniProt Q03630 1-159)
chain: MGIYSFWIFDRHCNCIFDREWTLASNSASGTINSKQNEEDAKLLYGMIFSLRSITQKLSKGSVKNDIRSISTGKYRVHTYCTASGLWFVLLSDFKQQSYTQVLQYIYSHIYVKYVSNNLLSPYDFAENENEMRGQGTRKITNRNFISVLESFLAPMVNQ
B4: TRS20 (protein, UniProt P38334 1-175)
chain: MPQYFAIIGKKDNPVYEIEFTNAENPQGFPQDLKELNPFILHASLDIVEDLQWQINPTSQLNGNGGNGSNGGGGFLRSRAVNNTDNCYLGKVDHFYGLAITAYISYSGMKFVMIHGNSANSSVVIDDNNMRSFYQEVHELYVKTLMNPFYKITDPIRSPAFDSRVRTLARKHLSK
B5: TRS31 (protein, UniProt Q03337 1-283)
chain: MSQRIIQPSASDQQFPGKSDGYEYTVGPKQAITSEASTTYIPSRIYSESLLFKRQEASLSAMAFLFQEMISQLHRTCKTAGDFETKLSDYGHNIGIRLLELLNFRASVSPSSLPRASAFLSQNESSSKLSNASNSPGMLANSSTATSASANERLQEKQTESLSNYITKMRRRDLKILDILQFIHGTLWSYLFNHVSDDLVKSSERDNEYMIVDNFPTLTQFIPGENVSCEYFVCGIIKGFLFNAGFPCGVTAHRMPQGGHSQRTVYLIQFDRQVLDREGLRFG
B6: VPS1 (protein, UniProt P21576 1-704)
chain: MDEHLISTINKLQDALAPLGGGSQSPIDLPQITVVGSQSSGKSSVLENIVGRDFLPRGTGIVTRRPLVLQLINRRPKKSEHAKVNQTANELIDLNINDDDKKKDESGKHQNEGQSEDNKEEWGEFLHLPGKKFYNFDEIRKEIVKETDKVTGANSGISSVPINLRIYSPHVLTLTLVDLPGLTKVPVGDQPPDIERQIKDMLLKYISKPNAIILSVNAANTDLANSDGLKLAREVDPEGTRTIGVLTKVDLMDQGTDVIDILAGRVIPLRYGYIPVINRGQKDIEHKKTIREALENERKFFENHPSYSSKAHYCGTPYLAKKLNSILLHHIRQTLPEIKAKIEATLKKYQNELINLGPETMDSASSVVLSMITDFSNEYAGILDGEAKELSSQELSGGARISYVFHETFKNGVDSLDPFDQIKDSDIRTIMYNSSGSAPSLFVGTEAFEVLVKQQIRRFEEPSLRLVTLVFDELVRMLKQIISQPKYSRYPALREAISNQFIQFLKDATIPTNEFVVDIIKAEQTYINTAHPDLLKGSQAMVMVEEKLHPRQVAVDPKTGKPLPTQPSSSKAPVMEEKSGFFGGFFSTKNKKKLAALESPPPVLKATGQMTERETMETEVIKLLISSYFSIVKRTIADIIPKALMLKLIVKSKTDIQKVLLEKLYGKQDIEELTKENDITIQRRKECKKMVEILRNASQIVSSV
B7: LDB19 (protein, UniProt Q12502 1-818)
chain: MAFSRLTSTHQSNHNGYSNSNKKGQSLPLTLSIDVESPPCVLYGSAMESSGAVLSGLFTVTVVDPYSSAEDKSLKNTESNVSTTSKSLKRKSTFGSALSSRLSSLSASTSNISPSTSSTSISHSPTPANLRIMAGYTKITITSVTLSLVQKIHFHKPFVPNISSMQTCMNCKTKITNMKSWEIQSNTQDLSVGSHSYPFSYLIPGSVPCSSSLGATAETQVKYELIAVVTYIDPHRNSFSSGHSTPRKEGSSSKKRLLQLAMPIAVTRSIPRGPDKNSLRVFPPTELTAAAVLPNVVYPKSTFPLEMKLDGVSSGDRRWRMRKLSWRIEETTRVKAHACPVHKHELRQLEEQVKIKESEKSKKPRSHIKRYGELGPQIRVAVNSLENMPSQRLPGEPGREQAPNSSGPASTGNVGLDDENPVNEDEEDQPGSEFIHPSDDALRQELLMQQQRARQQQLQQELKNNSSLFTEEVRIISKGEMKSGWKTDFDNNGKIELVTEIDCMGLNSGVSNPVMHASTLQTPSTGNKKPSINVACDIQDPNLGLYVSHILAVEIVVAEETLQYANGQPIRKPNSKNKKETNNNTMNVHNPDQRLAELSPIFANRNTPKVRRMGPEDITPVNSNKSNHSTNKEKASNGASNSNIVSVPTGAARVLRMQFRLTVTERSGLGISWDEEVPPIYQDVELLSPPCYELSINNGIKNKLYSTMSTPVRSEDDFVGGSDEDIGNYESQGLEPGPNVQEVTITQNKLTIPPTAHHYQPASSSQRSLTTVQSPPLESVVSVQGSVPFRGHVLTPHSTRDIRIQNFSDFLDSNRITQ
B8: VPS17 (protein, UniProt P32913 1-551)
chain: MTSAVPYDPYDDLDNNPFAEPQEEDSEPAATTTDGSSSMSEERVGTEQTAASVQDNGTANNIQNGLGEEGNATRSKTSNEHNENQQPSQPSERVILPERSDEKKKYTLLAKVTGLERFGSATGKKENPTIIFDCSTNLPTFRKQQYKNVKKSYEEFHQLFKYLNVAIQESFVPTLPSAYTTFGINSEEDRMKVTRNFQLWFNRLSQDPLIIRNEEVAFFIESDFNTYTPINKSKSLASGLKRKTLKQLAPPYDEITELAEFRPLVKSIYVVSQSLQEKLLRVSRNRKMMVQEENAFGQDFVNLDEHNKLYRRYGKILTAVGDIDSIIATMDMATLYDGLEWIVRDAYAVKEALTNRHFIMRNLVQAQQNSKAKQEQARRFRSRRDINPMKIDEALRQLKAAAKNEQVLTLKLQRITSNMIIERKQWISWYEEWIRSSIKEFTLRKIEYERKKLTLLERVRSDIRKADENGGLSRLGRHAVSNNNSDTSQTLKGDSWTGESNRKSQIPINKIAHTEFDDELFTEDDGYNSQDSDTTSLNARHAASLLGMSTK
B9: SEC21 (protein, UniProt P32074 1-935)
chain: MSAHTYKKFENSTSGDLPDKMTIYQDCMNTFNESPVNSKRCRLLISRLLRLLAQGETFPQNEATALFFSISKLFQHQNDPLRQAVYLAIKELSGISEDVLMATSSIMKDVQNGSDLIKPDAIRSLTYVLDESTAFSAERLLKSAVVSRHPSISSAALCTSYHLLPISEVTIRRFTNETQEAVLDLKQFPNQHGNSEYYPNSTYISQYHALGLLYQLKKTDKMALLKLVRHFSENNSMKNQLAKVELVKIVNDLIYRDPQLFSQFRPLLSDWLSNKFESVQLETAKLITSFATRNSRLVAPELYAAAISALQSLLTVPRVSSRFAALRILNRISMVSPEKIVVCNPELESLINDSNRNISTYAITTLLKTGTSKNISSLISTITNFIHDVSDDFKIIIIDAVRTLSLNFPQEWKSILNFLIDVLKNSEGGFKFKNSIVEALIDIVSFVPQSKELALENLCDFIEDCEFNEILVRILHLLGKEGPSAPNPSLYVRHIYNRVVLENSIIRSAAVVALSKFALTKNDPTLYESIISLLKRIANDKDDEVRDRATIALEFIDSARNKDDVIAQNLIESKYFYDIPSLESKLSSYISSNTDSFATAFDVNQVRKFTEDEMKAINLKRKQEQIFNQKSETTLDTTPEAESVPEKRADANSFAGPNLDDHQEDLLATKYADELLSIEQIKPFGQLVNSSRAISLTEPEAEFVVRGVKHLFKDNVVLQFNITNTLTDIALDNVSVVCTPEISDEAELEELFTLQVDRLLPSEEAACYVAFKKLDEIVMEGFLNNLTFTTKEINPDTNEPFDGDEGFQDEYEIDSIFLNAGDYVKSSFTGNFSATFDELPCEEVAVFNIQEDLSIQEVVDKIILNSSCLPVESTQFAPSDSNSHTLKLFGKSALTGSKVALQIKMIKSSKGLALKVHGKGEDSLLCSDLVNGLMQ

Target: T1, Trs120p-TAP (yeast (endogenous in the yeast strain))
Test: affinity purification with mass spectrometry; Trs120p-TAP purified from yeast lysate (1% CHAPS, 100 mM NaCl) on IgG beads, TEV elution, calmodulin beads, EGTA elution; gel bands or total eluate analysed by MS/MS

Binder	binding
B1	binds
B2	binds
B3	binds
B4	binds
B5	binds
B6	binds
B7	binds
B8	binds
B9	binds
